Data from PubChem BioAssay AID504327 (National Center for Advancing Translational Sciences (NCATS), 2011).
The whole screen tested about 390,000 compounds, of which about 820 (0.21%) were called active. Inconclusive results, whose numbers are uncertain, are shown with a selection of clear calls. Calls come from the whole dose curve; as a rule, active = well fitted inhibition curve with a large enough effect; inconclusive = small, poorly fitted or top-dose-only effect, or another doubt; inactive = no such curve, though single readings can be large or run the other way. A potency beside an inconclusive call is a rough fit, not a confirmed value.

Amino acid sequences for entries named in this document (tags omitted).
UniProt Q92830, whole entry, looked up: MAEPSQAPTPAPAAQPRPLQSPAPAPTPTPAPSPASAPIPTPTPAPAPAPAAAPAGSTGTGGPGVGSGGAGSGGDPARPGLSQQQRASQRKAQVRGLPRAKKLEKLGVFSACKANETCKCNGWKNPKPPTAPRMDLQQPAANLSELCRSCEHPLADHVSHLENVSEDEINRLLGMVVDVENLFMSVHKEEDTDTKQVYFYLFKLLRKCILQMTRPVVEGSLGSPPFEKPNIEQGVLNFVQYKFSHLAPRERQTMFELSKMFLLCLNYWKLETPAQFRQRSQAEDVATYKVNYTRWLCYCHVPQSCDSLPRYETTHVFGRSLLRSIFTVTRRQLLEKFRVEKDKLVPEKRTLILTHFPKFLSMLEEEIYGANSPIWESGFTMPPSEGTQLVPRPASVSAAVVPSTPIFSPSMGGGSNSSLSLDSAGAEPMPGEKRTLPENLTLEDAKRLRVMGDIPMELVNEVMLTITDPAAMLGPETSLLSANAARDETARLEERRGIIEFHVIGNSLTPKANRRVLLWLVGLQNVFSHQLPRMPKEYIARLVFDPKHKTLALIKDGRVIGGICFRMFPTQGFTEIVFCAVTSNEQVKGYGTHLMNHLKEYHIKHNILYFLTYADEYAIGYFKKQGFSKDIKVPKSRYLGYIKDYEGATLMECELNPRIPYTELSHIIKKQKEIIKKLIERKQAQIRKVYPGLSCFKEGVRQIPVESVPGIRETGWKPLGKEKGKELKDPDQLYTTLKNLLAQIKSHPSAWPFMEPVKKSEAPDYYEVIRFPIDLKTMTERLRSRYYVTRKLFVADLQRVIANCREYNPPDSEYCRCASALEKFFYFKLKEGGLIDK

The compounds below were run against Histone acetyltransferase KAT2A (Homo sapiens) (UniProt Q92830) (assay: qHTS Assay for Inhibitors of GCN5L2). Conditions: GCN5L2 HAT assay, ThioGlo1 CoA-SH fluorescence; activity change, negative = inhibition: at 58.9 µM (top of the series) unless noted.
Method in brief: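 Fluorescence readout, Ex340nm/Em540nm: ThioGlo1 (50uM final) reacts with free CoA thiol released as 20nM GCN5L2 acetylates H3(1-25) peptide (75uM) using acetyl-CoA (70uM). Compound and enzyme sat 15 min beforehand; 20 min room-temperature reaction.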
% is set by controls: 0 for no effect and ±100 for the full control effect; potency is the fitted concentration of half-maximal effect.

SMILES | activity change, negative = inhibition | Potency
Cc1ccccc1NC(=O)NCCN1C(=O)C2C3C=CC(C3)C2C1=O (configuration not stated) | inactive: -0.303% | –
COc1ccc(CSc2nc3ccccc3[nH]2)cc1 | – | inconclusive: 31.6 µM [inhibitor, single point]
Cc1ccc2nc(-c3ccc(NC(=O)c4ccco4)cc3)[nH]c2c1 | – | inconclusive: 39.8 µM [inhibitor, single point]
Cc1ccc(S(=O)(=O)N2CCOCC2)cc1NC(=O)COC(=O)C1=COCCO1 | inactive: -9.42% | –
CN(Cc1ccccc1)Cc1c(O)ccc2ccccc12 | inactive: 2.56% | –
CCOC(=O)Cc1csc(-n2sc3ccccc3c2=O)n1 | inactive: -16.3% [at 0.501 µM] | –
CCCCSc1nc2ccc(Nc3nc(N4CCOCC4)nc(N4CCOCC4)n3)cc2s1 | – | inconclusive: 0.708 µM [inhibitor, single point]
COc1ccc(-c2coc3c(C)c4oc(=O)c(CCC(=O)O)c(C)c4cc23)cc1 | – | inconclusive: 5.01 µM [inhibitor, single point]
O=C(NC1CC2CCCC(C1)N2Cc1cccs1)c1ccc([N+](=O)[O-])cc1 (configuration not stated) | inactive: 0.176% | –
Cn1nnnc1SCC(=O)NCc1ccco1 | inactive: -1.67% | –
COC(=O)c1ccc(OCCOCCOc2cccc3ccc(C)nc23)cc1 | inactive: -9.83% | –
Cc1ccc(NC(=O)CNc2ccc(OC(C)C)cc2)cc1 | – | inconclusive: 0.794 µM [inhibitor, single point]
O=C(c1ccco1)N1CCN(S(=O)(=O)c2cccs2)CC1 | – | inconclusive: 39.8 µM [inhibitor, single point]
COC(=O)c1cc2ccsc2n1CC(=O)Nc1ccc(N(C)C)cc1 | – | inconclusive: 1.41 µM [inhibitor, partial curve]
NC(=NCCc1ccccc1)c1cccc([N+](=O)[O-])c1 | inactive: -27.4% | –
Cc1ccc(C(=O)OCC(=O)NCCN2C(=O)CSC2=O)cc1 | inactive: 0.0716% | –
Fc1ccc(F)c(C2=NNC(=NCC3CCCO3)SC2)c1 (configuration not stated) | – | inconclusive: 25.1 µM [inhibitor, single point]
COc1cccc(-c2nc(NCc3ccc(OC)cc3OC)c3ccccc3n2)c1 | – | inconclusive: 28.2 µM [inhibitor, single point]
Cn1c(=O)[nH]c(=O)c2c1nc(SCCN1CCCCC1)n2Cc1ccccc1 | inactive: 0.0095% | –
O=C(O)c1ccc(CSc2nc3ccccc3[nH]2)cc1 | – | inconclusive: 7.08 µM [inhibitor, single point]
N#CCCn1c(=O)c(-c2ccc(Cl)cc2)nc2cnc(N3CCNCC3)nc21 | – | inconclusive: 17.8 µM [inhibitor, partial curve]
CC(C)(C)c1ccc(Oc2ccc(N)cn2)cc1 | – | inconclusive: 35.5 µM [inhibitor, single point]
CCOC(=O)c1cc(S(=O)(=O)N2CCN(Cc3ccccc3)CC2)cn1C | – | inconclusive: 7.08 µM [inhibitor, single point]
Cc1cc(C)nc(NC(=O)c2cccs2)c1 | inactive: -5.35% | –

In the list so far, 2 have a halogen:
SMILES | activity change, negative = inhibition | Potency
Fc1ccc(F)c(C2=NNC(=NCC3CCCO3)SC2)c1 (configuration not stated) | – | inconclusive: 25.1 µM [inhibitor, single point]
N#CCCn1c(=O)c(-c2ccc(Cl)cc2)nc2cnc(N3CCNCC3)nc21 | – | inconclusive: 17.8 µM [inhibitor, partial curve]

Further compounds follow.

SMILES | activity change, negative = inhibition | Potency
COC(=O)c1ccc(NC(=O)COc2cccc(-n3cnnn3)c2)cc1 | – | inconclusive: 1.58 µM [inhibitor, full curve, poor fit]
CN1C(=O)/C(=C2/C=Cc3ccccc3N2CCCS(=O)(=O)O)SC1=S | inactive: -1.41% | –
O=C(Oc1cccc(-n2cnnn2)c1)c1ccccc1Cl | – | inconclusive: 8.91 µM [inhibitor, single point]
COc1ccccc1CCNC(=O)Cn1ccc2cc(S(=O)(=O)N3CCCCCC3)ccc21 | – | inconclusive: 6.31 µM [inhibitor, single point]
Cc1ccc(C)c(S(=O)(=O)c2nnn3c2nc(Nc2ccc(F)c(Cl)c2)c2sccc23)c1 | inactive: -22.7% | –
CC(C)C(=O)Nc1cccc(NC(=S)NC(=O)c2ccccc2Cl)c1 | – | inconclusive: 25.1 µM [inhibitor, single point]
COc1ccc(NC(=O)c2cccc(S(=O)(=O)N(C)c3ccccc3)c2)cn1 | inactive: -2.41% | –
O=C(c1ccc([N+](=O)[O-])cc1)N(Cc1ccc(Br)cc1)N1C(=O)CCCC1=O | inconclusive: -93.5% [inhibitor] [at 0.501 µM] | –
N#Cc1cc(-c2ccccc2)nn1-c1ccccc1 | – | inconclusive: 39.8 µM [inhibitor, single point]
CN1CCN(CCOc2ccc(-c3ccccc3)cc2)CC1 | inactive: -4.42% | –
CSc1ccccc1OCc1cc(C(=O)N2CCc3[nH]cnc3C2c2ccccn2)no1 (configuration not stated) | – | inconclusive: 39.8 µM [inhibitor, single point]
CSc1ccc(CNC(=O)c2cc3c(=O)n(Cc4ccco4)ccc3nc2C)cc1 | inactive: -6.79% | –
CC1CCN(Cc2c(C(=O)N/N=C/c3ccc(OC(C)C)cc3)nnn2-c2nonc2N)CC1 | – | inconclusive: 0.794 µM [inhibitor, full curve, poor fit]
Cc1cc(NC(=O)c2ccc(N3C(=O)CCC3=O)cc2)no1 | – | inconclusive: 3.55 µM [inhibitor, partial curve]
CCc1nnc(NS(=O)(=O)c2ccc(N/C=C\C(=O)c3ccc(C)cc3)cc2)s1 | inactive: -2.7% | –
COc1ccc(-c2ccc(NS(=O)(=O)c3cccc([N+](=O)[O-])c3)cc2)nn1 | – | inconclusive: 3.16 µM [inhibitor, full curve]
CN1CCN(CCCN2c3ccccc3Sc3ccc(C(F)(F)F)cc32)CC1 | – | inconclusive: 15.8 µM [inhibitor, single point]
COc1cccc(N2CCN(C(=O)c3cccc(NC4=NC5CS(=O)(=O)CC5S4)c3)CC2)c1 (configuration not stated) | – | inconclusive: 10 µM [inhibitor, partial curve]
O=C(Nc1nc(-c2ccccn2)cs1)C1CCCC1 | inactive: -8.86% | –
CCOC(=O)c1c(C)oc2nc(C)nc(NC(C)c3ccccc3)c12 (configuration not stated) | inactive: 5.95% | –
COCCNC(=O)c1c(N)n(-c2cccc(C)c2)c2nc3ccccc3nc12 | – | inconclusive: 31.6 µM [inhibitor, single point]
CN(C)c1ncc2nc(-c3ccc(F)cc3)c(=O)n(CCc3ccccc3)c2n1 | – | inconclusive: 35.5 µM [inhibitor, single point]
COc1ccc(CNC(=O)COC(=O)c2cc(-c3cccs3)nc3ccccc23)cc1OC | – | inconclusive: 14.1 µM [inhibitor, partial curve, poor fit]
